Measurements reported in publication PMC8245858 (Acta Pharmaceutica Sinica. B, 2021).

Experiment: Caco-2 permeability assay
Assay type: in vitro ADME
Conditions: human; for Papp: Mean ± RSD, n = 2

efflux ratio (Caco-2): 9.8 | Papp (Caco-2, Papp (A‒B), direction A‒B): 0.23 ± 0.02 ×10⁻⁶ cm/s | Papp (Caco-2, Papp (B‒A), direction B‒A): 2.2 ± 0.1 ×10⁻⁶ cm/s
SMILES: CC(C)NCC(O)COc1ccc(CC(N)=O)cc1 (stereo not drawn) [Atenolol]
